Among the data in paper PMC6795447 are binding values, retold here.

Chains of the proteins cited; added tags and fusions are not shown. Residues count along the entry.
UniProt P28799, residues 18-593: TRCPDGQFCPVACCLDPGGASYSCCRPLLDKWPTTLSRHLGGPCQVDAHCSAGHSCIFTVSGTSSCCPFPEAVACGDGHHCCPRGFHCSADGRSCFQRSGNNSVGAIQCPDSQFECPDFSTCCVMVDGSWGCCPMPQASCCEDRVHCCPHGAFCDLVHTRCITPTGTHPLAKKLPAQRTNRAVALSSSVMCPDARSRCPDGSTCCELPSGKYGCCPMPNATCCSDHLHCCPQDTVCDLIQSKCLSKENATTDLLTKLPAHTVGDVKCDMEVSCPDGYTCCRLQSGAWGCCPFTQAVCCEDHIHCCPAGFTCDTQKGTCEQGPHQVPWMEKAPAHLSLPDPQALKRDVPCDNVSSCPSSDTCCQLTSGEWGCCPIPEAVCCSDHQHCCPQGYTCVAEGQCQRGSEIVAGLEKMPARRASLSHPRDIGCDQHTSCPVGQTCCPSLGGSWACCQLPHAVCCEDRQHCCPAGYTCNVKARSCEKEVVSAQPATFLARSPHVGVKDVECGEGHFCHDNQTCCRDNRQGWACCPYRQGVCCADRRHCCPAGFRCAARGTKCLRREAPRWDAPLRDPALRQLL
UniProt Q9Y6K9: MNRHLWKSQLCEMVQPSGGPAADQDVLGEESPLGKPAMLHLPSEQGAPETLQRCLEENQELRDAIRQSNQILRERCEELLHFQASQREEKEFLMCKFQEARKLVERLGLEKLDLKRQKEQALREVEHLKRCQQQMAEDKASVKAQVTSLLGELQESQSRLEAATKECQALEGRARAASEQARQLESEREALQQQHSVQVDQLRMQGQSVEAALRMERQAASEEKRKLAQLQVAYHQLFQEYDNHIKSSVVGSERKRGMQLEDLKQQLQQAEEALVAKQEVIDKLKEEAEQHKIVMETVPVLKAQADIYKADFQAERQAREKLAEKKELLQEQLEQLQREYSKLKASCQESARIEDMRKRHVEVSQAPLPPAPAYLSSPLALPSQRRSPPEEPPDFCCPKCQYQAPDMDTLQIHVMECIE
UniProt O88522: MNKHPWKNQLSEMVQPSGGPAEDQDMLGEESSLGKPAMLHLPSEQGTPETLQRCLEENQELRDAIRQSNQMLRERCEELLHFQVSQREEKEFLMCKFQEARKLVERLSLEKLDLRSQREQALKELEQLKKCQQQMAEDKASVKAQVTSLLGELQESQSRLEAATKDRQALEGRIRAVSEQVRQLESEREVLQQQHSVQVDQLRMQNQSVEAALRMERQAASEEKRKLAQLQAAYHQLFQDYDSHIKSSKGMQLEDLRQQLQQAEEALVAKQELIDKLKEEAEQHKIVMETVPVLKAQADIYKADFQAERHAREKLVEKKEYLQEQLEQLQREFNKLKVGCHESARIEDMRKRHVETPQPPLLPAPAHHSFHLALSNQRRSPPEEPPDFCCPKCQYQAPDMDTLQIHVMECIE

In assay [1] the target is FLAG-tagged full-length PGRN (UniProt P28799). In words: co-IP; HEK293 cells co-transfected with tagged constructs, 24 h; lysed in RIPA buffer; lysates incubated with anti-FLAG or anti-HA antibodies overnight at 4°C, protein A/G agarose beads; western blot. In general terms: Immunoblotting shows a protein as a band on a membrane.
Assay [2] addresses progranulin (PGRN), endogenous in HEK293 cells (human (endogenous in HEK293)) (UniProt P28799). The assay can be described thus: co-IP.
Assay [3] has as its target NF-κB essential modulator (NEMO), endogenous in HEK293 cells (human (endogenous in HEK293)) (UniProt Q9Y6K9). The assay can be described thus: co-IP.
In assay [4] the target is NEMO, endogenous in mouse bone marrow-derived macrophages (mouse (endogenous in BMDMs)) (UniProt O88522). The assay can be described thus: co-IP.

Results are given in words; binding and its absence hold for the method and conditions named. In cells and extracts the contact can be indirect. Some entries that bind do so weakly or less than the wild type.

For “Myc-tagged full-length NEMO (from UniProt Q9Y6K9 1-419)”, the binding entry in assay [1] is listed as “binds”. As for “NF-κB essential modulator (NEMO), endogenous in HEK293 cells (from UniProt Q9Y6K9 1-419)”, in assay [2], the binding entry is given as “binds”. Take “progranulin (PGRN), endogenous in HEK293 cells (from UniProt P28799 18-593)”: the binding entry in assay [3] is given as “binds”.

B1: A20, endogenous in mouse bone marrow-derived macrophages (enzyme, UniProt Q60769 1-775)
chain: MAEQLLPQALYLSNMRKAVKIRERTPEDIFKPTNGIIYHFKTMHRYTLEMFRTCQFCPQFREIIHKALIDRSVQASLESQKKLNWCREVRKLVALKTNGDGNCLMHAACQYMWGVQDTDLVLRKALCSTLKETDTRNFKFRWQLESLKSQEFVETGLCYDTRNWNDEWDNLVKMASADTPAARSGLQYNSLEEIHIFVLSNILRRPIIVISDKMLRSLESGSNFAPLKVGGIYLPLHWPAQECYRYPIVLGYDSQHFVPLVTLKDSGPELRAVPLVNRDRGRFEDLKVHFLTDPENEMKEKLLKEYLIVMEIPVQGWDHGTTHLINAAKLDEANLPKEINLVDDYFELVQHEYKKWQENSDQARRAAHAQNPLEPSTPQLSLMDIKCETPNCPFFMSVNTQPLCHECSERRQKNQSKLPKLNSKLGPEGLPGVGLGSSNWSPEETAGGPHSAPPTAPSLFLFSETTAMKCRSPGCPFTLNVQHNGFCERCHARQINASHTADPGKCQACLQDVTRTFNGICSTCFKRTTAEPSSSLTSSIPASCHQRSKSDPSQLIQSLTPHSCHRTGNVSPSGCLSQAARTPGDRAGTSKCRKAGCMYFGTPENKGFCTLCFIEYRENKQSVTASEKAGSPAPRFQNNVPCLGRECGTLGSTMFEGYCQKCFIEAQNQRFHEARRTEEQLRSSQHRDMPRTTQVASRLKCARASCKNILACRSEELCMECQHLSQRVGSVAHRGEPTPEEPPKQRCRAPACDHFGNAKCNGYCNECYQFKQMYG
For B1, in assay [4], the binding entry was “binds”.
